Source: paper doi:10.1101/2022.03.04.482790
These are yes or no findings as the source states them, for the method shown. Some results given as binding are weak or reduced against the parent protein; the word gives no strength.

Amino acid sequences for entries named in this document (tags omitted).
UniProt A8DY81: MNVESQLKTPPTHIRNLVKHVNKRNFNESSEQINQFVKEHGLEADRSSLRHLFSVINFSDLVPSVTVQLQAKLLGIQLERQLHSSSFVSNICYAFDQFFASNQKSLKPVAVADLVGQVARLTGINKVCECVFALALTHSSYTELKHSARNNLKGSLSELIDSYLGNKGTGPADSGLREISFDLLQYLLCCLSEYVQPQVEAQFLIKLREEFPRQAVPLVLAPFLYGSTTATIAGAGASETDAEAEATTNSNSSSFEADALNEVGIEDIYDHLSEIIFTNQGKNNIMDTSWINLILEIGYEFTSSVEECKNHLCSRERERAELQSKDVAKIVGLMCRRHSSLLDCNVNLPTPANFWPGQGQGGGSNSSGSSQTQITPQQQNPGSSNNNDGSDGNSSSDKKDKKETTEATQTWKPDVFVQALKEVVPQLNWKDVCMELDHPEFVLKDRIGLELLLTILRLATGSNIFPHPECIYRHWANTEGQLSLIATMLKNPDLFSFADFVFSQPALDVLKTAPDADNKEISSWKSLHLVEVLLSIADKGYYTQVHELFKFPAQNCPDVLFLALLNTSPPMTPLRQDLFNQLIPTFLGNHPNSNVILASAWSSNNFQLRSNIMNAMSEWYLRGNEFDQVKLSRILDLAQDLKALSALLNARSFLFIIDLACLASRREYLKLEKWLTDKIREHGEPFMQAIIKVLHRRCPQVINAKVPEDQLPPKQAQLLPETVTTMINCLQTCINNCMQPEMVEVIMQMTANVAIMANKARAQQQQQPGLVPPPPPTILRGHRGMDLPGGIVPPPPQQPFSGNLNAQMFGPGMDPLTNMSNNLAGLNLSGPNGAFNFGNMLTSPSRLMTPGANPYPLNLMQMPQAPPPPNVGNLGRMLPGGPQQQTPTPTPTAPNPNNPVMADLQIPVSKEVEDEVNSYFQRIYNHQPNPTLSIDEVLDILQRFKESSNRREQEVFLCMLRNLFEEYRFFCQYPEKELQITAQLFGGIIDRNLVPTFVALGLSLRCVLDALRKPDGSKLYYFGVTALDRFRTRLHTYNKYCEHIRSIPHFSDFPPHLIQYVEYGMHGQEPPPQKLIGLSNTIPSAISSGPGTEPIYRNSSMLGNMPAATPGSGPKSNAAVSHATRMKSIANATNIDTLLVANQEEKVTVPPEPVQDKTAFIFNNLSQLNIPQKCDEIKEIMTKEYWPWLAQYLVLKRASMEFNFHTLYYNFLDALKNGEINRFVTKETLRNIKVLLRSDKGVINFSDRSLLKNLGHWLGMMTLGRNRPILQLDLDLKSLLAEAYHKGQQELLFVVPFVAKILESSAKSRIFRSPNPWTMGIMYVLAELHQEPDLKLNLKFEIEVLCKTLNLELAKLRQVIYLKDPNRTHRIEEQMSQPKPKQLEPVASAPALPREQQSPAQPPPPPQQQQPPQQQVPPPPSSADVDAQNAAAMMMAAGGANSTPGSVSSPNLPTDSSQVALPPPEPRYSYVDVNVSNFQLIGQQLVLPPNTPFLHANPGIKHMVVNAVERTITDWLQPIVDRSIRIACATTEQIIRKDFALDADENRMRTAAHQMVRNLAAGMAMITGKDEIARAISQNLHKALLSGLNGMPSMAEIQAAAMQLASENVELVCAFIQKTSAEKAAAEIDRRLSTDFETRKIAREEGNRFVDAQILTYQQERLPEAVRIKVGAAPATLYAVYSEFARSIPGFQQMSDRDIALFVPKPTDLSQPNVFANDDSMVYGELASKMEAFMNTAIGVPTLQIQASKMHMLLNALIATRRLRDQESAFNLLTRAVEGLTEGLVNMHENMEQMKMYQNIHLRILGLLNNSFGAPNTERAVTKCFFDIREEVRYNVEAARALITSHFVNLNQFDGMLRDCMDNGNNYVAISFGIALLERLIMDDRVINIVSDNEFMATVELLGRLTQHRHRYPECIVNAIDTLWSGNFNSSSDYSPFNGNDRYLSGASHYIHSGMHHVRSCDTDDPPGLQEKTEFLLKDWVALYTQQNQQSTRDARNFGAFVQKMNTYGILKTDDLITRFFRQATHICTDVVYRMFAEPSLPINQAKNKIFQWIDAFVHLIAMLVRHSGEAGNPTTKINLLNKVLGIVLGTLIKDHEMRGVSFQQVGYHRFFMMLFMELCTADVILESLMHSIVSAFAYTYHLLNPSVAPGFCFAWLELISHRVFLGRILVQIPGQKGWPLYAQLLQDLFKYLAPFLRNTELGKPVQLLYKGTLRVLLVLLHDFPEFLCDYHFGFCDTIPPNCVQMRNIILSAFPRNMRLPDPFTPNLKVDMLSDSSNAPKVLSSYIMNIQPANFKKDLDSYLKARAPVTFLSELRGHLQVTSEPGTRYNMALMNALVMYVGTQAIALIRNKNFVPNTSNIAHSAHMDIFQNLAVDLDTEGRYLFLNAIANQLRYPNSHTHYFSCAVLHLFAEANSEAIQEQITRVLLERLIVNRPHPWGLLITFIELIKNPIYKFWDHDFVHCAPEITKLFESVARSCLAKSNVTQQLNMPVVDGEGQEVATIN

T1: NOT2 (subunit of the Drosophila CCR4-NOT core complex) (Drosophila) (UniProt Q94547)
T1 sequence: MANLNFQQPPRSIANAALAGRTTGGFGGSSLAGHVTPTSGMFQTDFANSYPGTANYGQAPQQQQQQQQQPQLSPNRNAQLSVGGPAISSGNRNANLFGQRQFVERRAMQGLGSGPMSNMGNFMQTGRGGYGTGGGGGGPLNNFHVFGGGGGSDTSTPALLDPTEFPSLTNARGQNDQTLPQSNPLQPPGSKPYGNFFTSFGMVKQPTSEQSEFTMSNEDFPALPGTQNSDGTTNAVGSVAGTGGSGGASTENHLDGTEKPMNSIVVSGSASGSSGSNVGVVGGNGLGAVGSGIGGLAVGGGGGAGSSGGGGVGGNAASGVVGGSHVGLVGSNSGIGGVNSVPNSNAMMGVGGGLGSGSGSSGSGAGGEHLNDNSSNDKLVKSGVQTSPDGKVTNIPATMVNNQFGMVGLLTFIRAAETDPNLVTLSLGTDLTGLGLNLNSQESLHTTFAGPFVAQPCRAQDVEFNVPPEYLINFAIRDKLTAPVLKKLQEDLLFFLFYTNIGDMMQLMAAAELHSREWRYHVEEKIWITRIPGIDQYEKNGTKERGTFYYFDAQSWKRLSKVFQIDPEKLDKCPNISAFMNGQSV

T2: Drosophila Cup (Drosophila) (UniProt Q9VMA3)
T2 sequence: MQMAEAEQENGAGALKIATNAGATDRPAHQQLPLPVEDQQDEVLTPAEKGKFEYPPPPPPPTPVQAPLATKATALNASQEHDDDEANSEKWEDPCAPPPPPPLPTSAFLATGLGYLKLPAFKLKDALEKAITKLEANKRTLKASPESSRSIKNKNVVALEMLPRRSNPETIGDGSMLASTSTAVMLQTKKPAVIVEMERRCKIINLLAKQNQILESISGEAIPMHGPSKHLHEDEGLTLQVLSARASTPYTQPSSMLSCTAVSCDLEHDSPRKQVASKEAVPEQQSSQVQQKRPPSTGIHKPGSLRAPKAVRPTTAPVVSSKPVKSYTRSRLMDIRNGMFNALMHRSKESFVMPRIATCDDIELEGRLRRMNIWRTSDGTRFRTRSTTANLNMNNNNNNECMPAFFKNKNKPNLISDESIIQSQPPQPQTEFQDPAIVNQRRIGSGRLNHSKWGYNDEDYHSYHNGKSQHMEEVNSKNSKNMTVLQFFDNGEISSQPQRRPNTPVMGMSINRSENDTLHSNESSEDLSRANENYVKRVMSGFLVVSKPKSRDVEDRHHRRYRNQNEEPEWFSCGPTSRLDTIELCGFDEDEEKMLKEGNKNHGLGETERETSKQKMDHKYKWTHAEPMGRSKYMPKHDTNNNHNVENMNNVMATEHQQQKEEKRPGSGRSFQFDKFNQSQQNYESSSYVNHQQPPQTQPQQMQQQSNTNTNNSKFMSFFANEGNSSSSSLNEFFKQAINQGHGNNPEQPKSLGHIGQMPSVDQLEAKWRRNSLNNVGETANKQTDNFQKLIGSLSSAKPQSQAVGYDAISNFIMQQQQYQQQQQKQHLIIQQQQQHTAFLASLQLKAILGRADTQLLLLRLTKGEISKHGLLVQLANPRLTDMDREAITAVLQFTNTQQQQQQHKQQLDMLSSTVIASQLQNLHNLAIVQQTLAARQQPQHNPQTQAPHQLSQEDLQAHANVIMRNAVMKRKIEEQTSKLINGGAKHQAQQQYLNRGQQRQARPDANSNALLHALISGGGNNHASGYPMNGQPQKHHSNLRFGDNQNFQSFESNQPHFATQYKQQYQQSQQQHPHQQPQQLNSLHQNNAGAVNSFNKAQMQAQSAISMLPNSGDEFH


Columns and labels:
Assay in all cases: ReLo
[1] = molecular target: T1, NOT2 (subunit of the Drosophila CCR4-NOT core complex) (Drosophila)
[2] = molecular target: NOT1 (subunit of the Drosophila CCR4-NOT core complex) (Drosophila) (UniProt A8DY81)
[3] = molecular target: T2, Drosophila Cup (Drosophila)

binding [1]	binding [2]	binding [3]	Binder
no binding	binds	binds	Drosophila Nanos (protein, UniProt P25724 1-401) MFRSNLEGSGAAAVGVANPPSLAQSGKIFQLQDNFSAFHARGGLNILGLQDMYLDTSGANSSATLSPPITPVTPDPSTSAQSTHFPFLADSAATANSLLMQRQYHYHLLLQQQQQLAMAQHQLALAASAAAASASHQQTDEIARSLKIFAQVTTGAAENAAGSMQDVMQEFATNGYASDDLGRMSYGSAPPQVQMPPQQQHQQQQGLHLPLGRNPAQLQTNGGNLMPIPLATHWLNNYREHLNNVWRNMSYIPAAPNTMGLQAQTAATVSTNLGVGMGLGLPVQGEQLRGASNSSNNNNNNNKVYKRYNSKAKEISRHCVFCENNNEPEAVINSHSVRDNFNRVLCPKLRTYVCPICGASGDSAHTIKYCPKKPIITMEDAIKAESFRLAKSSYYKQQMKV
–	–	binds	eukaryotic translation initiation factor 4E (eIF4E) (protein, UniProt P48598 1-259) MQSDFHRMKNFANPKSMFKTSAPSTEQGRPEPPTSAAAPAEAKDVKPKEDPQETGEPAGNTATTTAPAGDDAVRTEHLYKHPLMNVWTLWYLENDRSKSWEDMQNEITSFDTVEDFWSLYNHIKPPSEIKLGSDYSLFKKNIRPMWEDAANKQGGRWVITLNKSSKTDLDNLWLDVLLCLIGEAFDHSDQICGAVINIRGKSNKISIWTADGNNEEAALEIGHKLRDALRLGRNNSLQYQLHKDTMVKQGSNVKSIYTL
–	–	binds	DEAD-box RNA helicase Me31B (protein, UniProt P23128 1-459) MMTEKLNSGHTNLTSKGIINDLQIAGNTSDDMGWKSKLKLPPKDNRFKTTDVTDTRGNEFEEFCLKRELLMGIFEKGWERPSPIQEAAIPIALSGKDVLARAKNGTGKTGAYCIPVLEQIDPTKDYIQALVMVPTRELALQTSQICIELAKHLDIRVMVTTGGTILKDDILRIYQKVQLIIATPGRILDLMDKKVADMSHCRILVLDEADKLLSLDFQGMLDHVILKLPKDPQILLFSATFPLTVKNFMEKHLREPYEINLMEELTLKGVTQYYAFVQERQKVHCLNTLFSKLQINQSIIFCNSTQRVELLAKKITELGYCCYYIHAKMAQAHRNRVFHDFRQGLCRNLVCSDLFTRGIDVQAVNVVINFDFPRMAETYLHRIGRSGRFGHLGIAINLITYEDRFDLHRIEKELGTEIKPIPKVIDPALYVANVGASVGDTCNNSDLNNSANEEGNVSK
no binding	no binding	–	Drosophila Cup (protein, UniProt Q9VMA3 1-1117) MQMAEAEQENGAGALKIATNAGATDRPAHQQLPLPVEDQQDEVLTPAEKGKFEYPPPPPPPTPVQAPLATKATALNASQEHDDDEANSEKWEDPCAPPPPPPLPTSAFLATGLGYLKLPAFKLKDALEKAITKLEANKRTLKASPESSRSIKNKNVVALEMLPRRSNPETIGDGSMLASTSTAVMLQTKKPAVIVEMERRCKIINLLAKQNQILESISGEAIPMHGPSKHLHEDEGLTLQVLSARASTPYTQPSSMLSCTAVSCDLEHDSPRKQVASKEAVPEQQSSQVQQKRPPSTGIHKPGSLRAPKAVRPTTAPVVSSKPVKSYTRSRLMDIRNGMFNALMHRSKESFVMPRIATCDDIELEGRLRRMNIWRTSDGTRFRTRSTTANLNMNNNNNNECMPAFFKNKNKPNLISDESIIQSQPPQPQTEFQDPAIVNQRRIGSGRLNHSKWGYNDEDYHSYHNGKSQHMEEVNSKNSKNMTVLQFFDNGEISSQPQRRPNTPVMGMSINRSENDTLHSNESSEDLSRANENYVKRVMSGFLVVSKPKSRDVEDRHHRRYRNQNEEPEWFSCGPTSRLDTIELCGFDEDEEKMLKEGNKNHGLGETERETSKQKMDHKYKWTHAEPMGRSKYMPKHDTNNNHNVENMNNVMATEHQQQKEEKRPGSGRSFQFDKFNQSQQNYESSSYVNHQQPPQTQPQQMQQQSNTNTNNSKFMSFFANEGNSSSSSLNEFFKQAINQGHGNNPEQPKSLGHIGQMPSVDQLEAKWRRNSLNNVGETANKQTDNFQKLIGSLSSAKPQSQAVGYDAISNFIMQQQQYQQQQQKQHLIIQQQQQHTAFLASLQLKAILGRADTQLLLLRLTKGEISKHGLLVQLANPRLTDMDREAITAVLQFTNTQQQQQQHKQQLDMLSSTVIASQLQNLHNLAIVQQTLAARQQPQHNPQTQAPHQLSQEDLQAHANVIMRNAVMKRKIEEQTSKLINGGAKHQAQQQYLNRGQQRQARPDANSNALLHALISGGGNNHASGYPMNGQPQKHHSNLRFGDNQNFQSFESNQPHFATQYKQQYQQSQQQHPHQQPQQLNSLHQNNAGAVNSFNKAQMQAQSAISMLPNSGDEFH
no binding	no binding	–	Drosophila Bag-of-marbles (Bam) (protein, UniProt P22745 1-442) MLNARDVCPEGNDDQQLDHNFKQMEEHLALMVEGNENEDPRKATCEYEDTNEDGATCTSGVLSEIQENFGRLRLCDVTAPLLEFHGLDCLQQIQKRSRHFAFDGSPAKKSRSGGVLVTGPKQKQLQKENVWNRKSKGSASADNIEKLPITIEKLHMIGLHGDCLEHNAVLRLMNLFRSLHDHLTADLGFSRQNSMPSDYLFDMPVKSTMPKSLNVRYQLQVLCTKVERFLVQQRRTLEANRHFDFEKYDECDKLLKGFASYLDNFKLLLKPKMRNRNGNSGSNADKFHTQRMERLLIGLRDWIKAAHLSVHVFNWEMDLEHRYSGAMTESHKSLNERAILLSGAELRAAEARGISAEDLFIAQRYKLGGPIYCVLEQHEFLSALIANPETYFPPSVVAICGPQKLGAVSMEQPSASEEEFEETEEVPSSPPRHTGRVPRFRS
–	binds	–	NOT2 (subunit of the Drosophila CCR4-NOT core complex) (protein, UniProt Q94547 1-585) MANLNFQQPPRSIANAALAGRTTGGFGGSSLAGHVTPTSGMFQTDFANSYPGTANYGQAPQQQQQQQQQPQLSPNRNAQLSVGGPAISSGNRNANLFGQRQFVERRAMQGLGSGPMSNMGNFMQTGRGGYGTGGGGGGPLNNFHVFGGGGGSDTSTPALLDPTEFPSLTNARGQNDQTLPQSNPLQPPGSKPYGNFFTSFGMVKQPTSEQSEFTMSNEDFPALPGTQNSDGTTNAVGSVAGTGGSGGASTENHLDGTEKPMNSIVVSGSASGSSGSNVGVVGGNGLGAVGSGIGGLAVGGGGGAGSSGGGGVGGNAASGVVGGSHVGLVGSNSGIGGVNSVPNSNAMMGVGGGLGSGSGSSGSGAGGEHLNDNSSNDKLVKSGVQTSPDGKVTNIPATMVNNQFGMVGLLTFIRAAETDPNLVTLSLGTDLTGLGLNLNSQESLHTTFAGPFVAQPCRAQDVEFNVPPEYLINFAIRDKLTAPVLKKLQEDLLFFLFYTNIGDMMQLMAAAELHSREWRYHVEEKIWITRIPGIDQYEKNGTKERGTFYYFDAQSWKRLSKVFQIDPEKLDKCPNISAFMNGQSV
